Here are results for six substances from article PMC12160554.

By UniProt entry, the sequences of proteins in these tests, tags left out. Where a name states a change or a piece, a line headed by the entry shows the natural chain unless it says otherwise.
UniProt Q62673: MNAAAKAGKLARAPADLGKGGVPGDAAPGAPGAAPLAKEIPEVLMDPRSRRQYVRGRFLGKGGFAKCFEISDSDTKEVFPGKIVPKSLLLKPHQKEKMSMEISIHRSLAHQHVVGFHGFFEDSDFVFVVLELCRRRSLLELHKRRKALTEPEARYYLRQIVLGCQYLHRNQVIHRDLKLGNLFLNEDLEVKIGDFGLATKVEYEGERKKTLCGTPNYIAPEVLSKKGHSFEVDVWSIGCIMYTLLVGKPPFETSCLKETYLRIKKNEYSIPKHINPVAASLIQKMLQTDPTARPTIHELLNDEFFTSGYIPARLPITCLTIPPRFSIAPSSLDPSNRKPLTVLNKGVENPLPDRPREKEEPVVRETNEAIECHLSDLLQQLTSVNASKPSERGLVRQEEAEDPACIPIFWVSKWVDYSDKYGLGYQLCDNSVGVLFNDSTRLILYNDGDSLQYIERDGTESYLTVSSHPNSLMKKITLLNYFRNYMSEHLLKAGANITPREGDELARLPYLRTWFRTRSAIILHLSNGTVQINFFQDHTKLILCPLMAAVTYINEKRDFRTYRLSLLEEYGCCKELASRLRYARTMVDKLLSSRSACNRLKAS
UniProt Q91Z63: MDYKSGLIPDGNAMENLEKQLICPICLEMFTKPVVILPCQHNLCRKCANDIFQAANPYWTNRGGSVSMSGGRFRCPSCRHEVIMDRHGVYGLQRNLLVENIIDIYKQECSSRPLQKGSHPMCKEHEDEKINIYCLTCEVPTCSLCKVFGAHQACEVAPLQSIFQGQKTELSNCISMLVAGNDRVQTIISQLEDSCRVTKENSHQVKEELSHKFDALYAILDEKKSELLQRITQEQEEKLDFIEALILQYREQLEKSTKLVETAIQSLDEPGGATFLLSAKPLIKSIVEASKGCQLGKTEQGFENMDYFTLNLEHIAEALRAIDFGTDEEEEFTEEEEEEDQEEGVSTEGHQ

These are yes or no findings as the source states them, for the method shown. Binding seen in cells or lysates may run through a third protein. A result given as binding can be weak or reduced; the word gives no strength. For part of these data: Tags and fused reporters may be left off the sequences shown.

The first experiment has as its target His-PLK1 (UniProt Q62673). Kind of experiment: co-IP; NP cells co-transfected with His-PLK1 and Flag-TRIM63 (FL or deletion mutants); IP with anti-His antibody (also anti-Flag in Figures 7J-K, 8E-F), western blot; also with shPTEN or shACE (interaction enhanced). (In general: A western blot detects proteins with antibodies after separation by electrophoresis.)
In the case of “Flag-TRIM63 ΔB (from UniProt Q91Z63) (domain or fragment)”, the binding entry is given as “no binding”. “Flag-TRIM63 ΔC (from UniProt Q91Z63) (domain or fragment)”: the binding entry is given as “no binding”. The same measure, in the same setting: then “Flag-TRIM63 ΔR (from UniProt Q91Z63) (domain or fragment)”, with “binds”.

Another experiment deals with Flag-TRIM63 full-length (UniProt Q91Z63). Kind of experiment: co-IP; NP cells co-transfected with Myc-ACE (FL or deletion mutants) and Flag-TRIM63 (FL or deletion mutants); IP with anti-Myc or anti-Flag antibody, western blot; also with shPTEN (interaction promoted).
With “Myc-ACE ΔM1 (from UniProt P47820) (domain or fragment)”, the binding entry was “binds”.

Take “Myc-ACE ΔM2 (from UniProt P47820) (domain or fragment)”: the binding entry was “no binding”. The same measure, in the same setting: then “Myc-ACE ΔM3 (from UniProt P47820) (domain or fragment)”, with “no binding”.

A further experiment addresses T1, Myc-ACE full-length (UniProt P47820).
T1 sequence: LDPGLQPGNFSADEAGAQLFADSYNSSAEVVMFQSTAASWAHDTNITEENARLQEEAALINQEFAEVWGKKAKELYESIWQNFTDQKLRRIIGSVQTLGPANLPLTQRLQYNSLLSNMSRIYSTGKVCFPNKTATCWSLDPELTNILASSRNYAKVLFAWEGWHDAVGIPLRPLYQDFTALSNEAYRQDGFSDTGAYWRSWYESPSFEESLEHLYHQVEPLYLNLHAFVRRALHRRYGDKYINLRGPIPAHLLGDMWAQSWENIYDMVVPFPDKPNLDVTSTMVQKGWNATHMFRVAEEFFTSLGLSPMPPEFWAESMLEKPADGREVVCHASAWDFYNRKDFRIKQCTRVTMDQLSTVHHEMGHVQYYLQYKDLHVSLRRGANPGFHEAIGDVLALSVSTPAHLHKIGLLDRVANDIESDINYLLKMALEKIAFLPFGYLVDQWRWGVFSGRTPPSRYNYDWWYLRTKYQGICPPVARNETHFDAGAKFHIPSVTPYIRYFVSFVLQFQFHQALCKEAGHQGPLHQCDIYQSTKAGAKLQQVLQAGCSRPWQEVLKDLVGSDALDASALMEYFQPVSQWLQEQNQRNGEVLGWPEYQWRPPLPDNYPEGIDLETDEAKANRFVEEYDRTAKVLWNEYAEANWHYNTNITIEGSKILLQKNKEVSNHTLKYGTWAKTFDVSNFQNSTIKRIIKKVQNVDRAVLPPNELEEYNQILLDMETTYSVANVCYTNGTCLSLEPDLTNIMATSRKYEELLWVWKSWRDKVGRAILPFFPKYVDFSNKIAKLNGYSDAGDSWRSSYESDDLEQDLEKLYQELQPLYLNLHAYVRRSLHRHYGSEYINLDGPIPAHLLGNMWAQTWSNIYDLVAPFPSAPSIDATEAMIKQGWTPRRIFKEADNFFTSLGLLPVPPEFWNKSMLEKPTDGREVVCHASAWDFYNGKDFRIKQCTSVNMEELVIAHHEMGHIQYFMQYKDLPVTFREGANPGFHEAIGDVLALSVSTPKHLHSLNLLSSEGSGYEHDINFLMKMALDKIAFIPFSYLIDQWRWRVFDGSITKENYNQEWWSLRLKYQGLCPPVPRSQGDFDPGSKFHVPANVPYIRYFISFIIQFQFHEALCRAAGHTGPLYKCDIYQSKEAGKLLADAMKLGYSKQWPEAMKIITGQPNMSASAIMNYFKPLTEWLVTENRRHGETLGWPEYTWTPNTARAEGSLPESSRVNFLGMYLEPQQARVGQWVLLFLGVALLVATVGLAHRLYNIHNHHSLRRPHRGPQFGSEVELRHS
Described as above.
For “Flag-TRIM63 ΔB (from UniProt Q91Z63) (domain or fragment)”, the binding result is reported as “no binding”.

With “Flag-TRIM63 ΔC (from UniProt Q91Z63) (domain or fragment)”, the binding result is recorded as “no binding”. The same measure, in the same setting: then “Flag-TRIM63 ΔR (from UniProt Q91Z63) (domain or fragment)”, with “binds”.
